Measured values taken from PubChem BioAssay AID248 (DTP/NCI, 2004).
The list shows only some results of the screen, not a fair sample: it is rich in T/C values a quarter to a half above the control, in often repeated tests (any T/C) and in doses without a T/C. Further doses and runs are listed elsewhere. T/C gives the treated animals as a percentage of the vehicle group. Some entries give survivors of the animals treated and no T/C: the source files T/C as zero there, which appears to mark a toxic dose or a test without result, not a measured value. Some doses without a T/C left all or most animals alive at the check, yet need not have been tolerated: the source hardly ever lists a survival T/C far under the control, and the zero likely stands for such cases as well. Survivors were counted at the toxicity check, usually on the fifth day, unless a day is given; later deaths do not show. Schedule codes are those of the source, read here as Q, the interval in days (D) or hours (H), X, the number of doses. Where survival is the endpoint, this PubChem deposit counts one and a half times the control or more as active, and values a quarter to a half above the control carry no call in these data; other NCI protocols may use other cut-offs. Some entries were tested several times; the values are given in rising order.

System: L1210 leukemia ip in BDF1 mice, survival T/C
Experiment: NCI In Vivo Anticancer Drug Screen. Data for tumor model L1210 Leukemia (intraperitoneal) in B6D2F1 (BDF1) mice
Conditions: T/C endpoint: mean survival time, higher T/C = longer survival
[1] = dose: 100.0 mg/kg/injection, schedule: Q01DX001 (ip), vehicle: saline
[2] = dose: 200.0 mg/kg/injection, schedule: Q01DX001 (ip), vehicle: saline
[3] = dose: 400.0 mg/kg/injection, schedule: Q01DX001 (ip), vehicle: saline
[4] = dose: 35.0 mg/kg/injection, schedule: Q01DX009 (ip), vehicle: saline
[5] = dose: 50.0 mg/kg/injection, schedule: Q01DX009 (ip), vehicle: saline

SMILES: CCCCN(C)/N=N/c1[nH]ncc1C(=O)OCC
- T/C (dose: 118.0 mg/kg/injection, schedule: Q01DX007 (ip), vehicle: saline): 126 % of control
- T/C (dose: 118.0 mg/kg/injection, schedule: Q01DX009 (ip), vehicle: other): 145 % of control
- T/C (dose: 177.0 mg/kg/injection, schedule: Q01DX007 (ip), vehicle: saline): 140 % of control
- T/C (dose: 177.0 mg/kg/injection, schedule: Q01DX009 (ip), vehicle: other): 138 and 148 % of control
- T/C (dose: 400.0 mg/kg/injection, schedule: Q01DX009 (ip), vehicle: other): 129 % of control
- survivor count (dose: 600.0 mg/kg/injection, schedule: Q01DX007 (ip), vehicle: saline): 4 of 6
- survivor count (dose: 600.0 mg/kg/injection, schedule: Q01DX009 (ip), vehicle: other): 3 of 6

SMILES: CC[N+](CC)(CC)CCCNC(c1ccccc1)C(Cl)(Cl)Cl (stereo not given)
- survivor count [1]: 0 of 4
- survivor count [2]: 0 of 4
- survivor count [3]: 0 of 4

SMILES: O=[N+]([O-])c1cccc(S(=O)(=O)OCC2CO2)c1 (stereo not given)
- survivor count (dose: 400.0 mg/kg/injection, schedule: Q01DX009 (ip), vehicle: Klucel (hydroxypropylcellulose) (HPC)): 5 of 6

SMILES: O=NN(CC(F)(F)F)C(=O)NC1CCCCC1 (tested in a mixture with another compound)
- survivor count (dose: 500.0 mg/kg/injection, schedule: Q01DX001 (ip), vehicle: other): 3 of 6
- survivor count (dose: 750.0 mg/kg/injection, schedule: Q01DX001 (ip), vehicle: other): 0 of 6

SMILES: COC(=O)C(CCC(=O)CCl)N1C(=O)c2ccccc2C1=O (stereo not given)
- survivor count (dose: 400.0 mg/kg/injection, schedule: Q04DX003 (ip), vehicle: saline with Tween-80): 2 of 6

SMILES: COc1cc2c(c(OC)c1OC)-c1ccc(SC)c(=O)cc1[C@@H](NC1OC(CO)C(O)C(O)C1O)CC2 (stereo not given in full)
- T/C [4]: 139 % of control
- survivor count [4]: 6 of 6
- T/C (dose: 50.0 mg/kg/injection, schedule: Q01DX005 (ip), vehicle: saline, evaluated on day 20): 131 % of control
- T/C (dose: 50.0 mg/kg/injection, schedule: Q01DX005 (ip), vehicle: saline, evaluated on day 30): 127 % of control
- T/C [5]: 147 % of control
- survivor count [5]: 6 of 6
- survivor count (dose: 75.0 mg/kg/injection, schedule: Q01DX009 (ip), vehicle: saline): 6 of 6
- T/C (dose: 100.0 mg/kg/injection, schedule: Q01DX005 (ip), vehicle: saline, evaluated on day 20): 136 % of control
- T/C (dose: 100.0 mg/kg/injection, schedule: Q01DX005 (ip), vehicle: saline, evaluated on day 30): 129 % of control
- survivor count (dose: 100.0 mg/kg/injection, schedule: Q01DX009 (ip), vehicle: saline): 5 of 6
- survivor count (dose: 200.0 mg/kg/injection, schedule: Q01DX005 (ip), vehicle: saline): 6 of 6
- survivor count (dose: 200.0 mg/kg/injection, schedule: Q01DX009 (ip), vehicle: saline): 0 of 6
- survivor count (dose: 400.0 mg/kg/injection, schedule: Q01DX009 (ip), vehicle: saline): 0 of 6

SMILES: CC(C)(C)C1CCC(OC=O)CC1 (stereo not given)
- survivor count (dose: 400.0 mg/kg/injection, schedule: Q04DX003 (ip), vehicle: Klucel (hydroxypropylcellulose) (HPC)): 3 of 6

SMILES: CC1=NCC[N-]CC[N-]CCN=C(C)C2CCCC1[N-]2.[Mn+3]
- survivor count (dose: 80.0 mg/kg/injection, schedule: Q01DX001 (ip), vehicle: saline): 0 of 4
- survivor count [1]: 0 of 4
- survivor count [2]: 0 of 4
- survivor count [3]: 0 of 4

SMILES: [O-]/[N+](=C\c1ccc(/C=[N+](\[O-])c2ccccc2)cc1)c1ccccc1
- survivor count [1]: 4 of 4
- survivor count [2]: 4 of 4
- survivor count [3]: 4 of 4

SMILES: CCS(=O)(=O)/C=C/c1ccco1
- survivor count (dose: 50.0 mg/kg/injection, schedule: Q04DX003 (ip), vehicle: carboxymethylcellulose (CMC)): 0 of 6
- survivor count (dose: 100.0 mg/kg/injection, schedule: Q04DX003 (ip), vehicle: carboxymethylcellulose (CMC)): 0 of 6
- survivor count (dose: 200.0 mg/kg/injection, schedule: Q04DX003 (ip), vehicle: carboxymethylcellulose (CMC)): 0 of 6
- survivor count (dose: 400.0 mg/kg/injection, schedule: Q04DX003 (ip), vehicle: carboxymethylcellulose (CMC)): 0 of 6

SMILES: [O-][n+]1ccc(-c2ccccc2)cc1
- survivor count (dose: 400.0 mg/kg/injection, schedule: Q04DX002 (ip), vehicle: saline): 1 of 3
